{"source": "patent US20110059910A1", "about": "“Novel aromatic fluoroglycoside derivatives, pharmaceuticals comprising said compounds and the use thereof” (SANOFI-AVENTIS, priority 2008, published 2011)", "system": "rats and mice", "experiment": "In vivo pharmacology: urinary glucose excretion in rats and mice", "set-up": "species or system Wistar rats, CD1 mice", "settings": "oral administration; urine collected over 24 h; dose (3, 10, 30 mg/kg) and species (rat or mouse) not given", "note": "At least one read-out could not be matched to a standard name with certainty."}
{"compound": "COc1ccc(Cc2cccc(C3OC(CO)C(F)C(O)C3O)c2)cc1", "note": "(stereo not shown) [Example 5]", "values": [{"measurement": "UGE (urinary glucose excretion)", "value": 7.6, "unit": "g glucose/kg/24 h"}]}
